# PubChem BioAssay AID602196, INSERM, 2012
# Purpose: 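Modifiers of cisplatin sensitivity in A549 cells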
# Cells: human A549 lung cancer cells
# Knock-down reagent: siRNA pair against human genes
# Timing: 48 h transfection before cisplatin; time from cisplatin to read-out not stated
# Conditions: cisplatin at a dose killing half of control-siRNA cells; exact dose and duration not given
# Read-out: 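Shift in cisplatin death relative to control siRNA, from -50 (all cells die) to +50 (no cells die); siRNAs harmful on their own scored 0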
# Reading the numbers: two-siRNA summed score (-2 to +2): higher = both siRNAs protect from cisplatin killing; -2 means both sensitise; mean protection from cisplatin (shift in death) and protection from cisplatin (shift in death), siRNA C: higher = protection from cisplatin killing
# Active means: 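Each siRNA scores 0 if harmful alone by LDH or WST-1, otherwise +1 if it reduces and -1 if it increases cisplatin killing; a gene is active when both siRNAs agree (sum +2 or -2)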
# Calls: active = both siRNAs shift cisplatin killing the same way; inactive = no consistent shift, or siRNA harmful alone
# In all, the deposit lists about 23,000 reagents; shown is an unselected part. In the full data, 455 (2%) were called active. 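Active includes both protection and sensitisation; some change values fall well beyond the stated -50 to +50 range.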 Unmarked entries are inactive. Further read-outs or replicates are left out here. The record does not give: the amount of reagent.
gene,two-siRNA summed score (-2 to +2),mean protection from cisplatin (shift in death) (%),"protection from cisplatin (shift in death), siRNA C (%)"
LOC441347 (retired record),0,11.1,14.9
LOC442022,2 (active),15.9,14.5
CHL1,0,12.2,5.6
ANGEL1,0,12.5,22.5
SREBF2,0,-7.2,-4.8
LOC340549,0,0.6,10.6
STAT5A,-1,1.8,-13.7
COLCA1,0,-2.4,2.3
ALX4,-1,-9.6,-23.2
PCDHB10,0,0.2,10.1
ZIK1,0,4.7,5.1
TTPAL,0,5.5,4.3
LOC339022,0,1.5,-8.5
LRRN4,1,11.1,1.5
SLC35G3,0,-1.4,11.9

4 of these entries, reformatted.
gene	two-siRNA summed score (-2 to +2)	mean protection from cisplatin (shift in death) (%)	protection from cisplatin (shift in death), siRNA C (%)
ZIK1	0	4.7	5.1
TTPAL	0	5.5	4.3
LOC339022	0	1.5	-8.5
LRRN4	1	11.1	1.5

Next records follow.
gene,two-siRNA summed score (-2 to +2),mean protection from cisplatin (shift in death) (%),"protection from cisplatin (shift in death), siRNA C (%)"
FOCAD,0,5.5,-6
KRT76,0,4.7,9.1
THEM5,0,2.3,2.4
PRUNE1,0,9.7,13.2
CFAP36,0,-0.4,-3.7
LOC90133,1,11.1,9.5
SLC6A9,0,0.1,35.7
FBXL14,1,18.2,12.2
AIMP1,0,10.2,16.7
DMRTA2,0,4.1,9.5
FAT2,0,-6.5,0.1
LOC442282,0,4.8,7.8
YTHDF3,0,4.2,5.9
TMPRSS11D,0,9.8,9.3
NPY2R,0,16.1,8.2
LOC440255,1,10.5,4.6
MED15,0,-19.7,-17.9
HECTD2,0,13.2,19.7
SUZ12,0,9.5,11.7
LOC440394,0,12.4,18.4
CATSPER2,0,-1.1,1.7
FLJ44037,0,10.6,29
AHSA1,1,23.9,19.5
SMNDC1,0,2.7,4.3
